In all, about 320,000 compounds went through this assay and about 2,100 (0.66%) were called active. Where a call stands in place of a potency, no number is given. The source calls these results inconclusive, neither active nor inactive. Calls follow the shape of the dose curve; as a rule, active = well fitted inhibition curve with a large enough effect in the signal ratio, with a control signal flat (not every such curve was filed as active); inconclusive = small, poorly fitted or top-dose-only effect, or effect the other way, or a change in a side signal; inactive = flat fitted curve, though single readings scatter; the % refers to the signal ratio.
experiment: qHTS Assay for Lipid Storage Modulators in Drosophila S3 Cells; settings: BODIPY lipid droplet fluorescence, 18-24 h, cells fed with added oleic acid
Potency is read from the fitted curve at half-maximal effect.

Structure (SMILES)	Potency
COc1ccc(CN(CCCl)CCCl)cc1Cl	inconclusive
COc1cc(OC)c(C(=O)NCC2(N(C)C)CCCCC2)cc1OC	inconclusive
O=[N+]([O-])c1cc([N+](=O)[O-])c(NCC2CCS(=O)(=O)C2)c([N+](=O)[O-])c1 (stereo not given)	inconclusive: 4.1 nM
COc1ccc(NC2CCN(C(=O)OC(C)(C)C)CC2)cc1	inconclusive
N#CC1(Nc2ccccc2)CCN(CCc2ccccc2)CC1	inconclusive
Cc1ccc(OCC(C)C)c(CN(CCCl)CCCl)c1	inconclusive
CCOC(=O)N1CCC(Nc2ccc(F)cc2)CC1	inconclusive
O=C(NCC1(N2CCCCC2)CCCCC1)c1ccc(F)cc1	inconclusive
COc1ccc(Cl)cc1C(=O)NCC1(N2CCOCC2)CCCCC1	inconclusive
O=C(NCC1(N2CCCCC2)CCCCC1)c1ccc(Cl)s1	inconclusive
O=C(OC1CN2CCC1CC2)C1c2ccccc2Oc2ccccc21 (stereo not given)	inconclusive
COc1ccc(C(=O)NCC2(N3CCCCC3)CCCCC2)cc1	inconclusive
O=C(NCC1(N2CCCCC2)CCCCC1)c1cccs1	inconclusive
CSc1ccccc1C(=O)NCC1(N2CCCCC2)CCCCC1	inconclusive
COc1cc(OC)cc(C(=O)NCC2(N3CCOCC3)CCCCC2)c1	inconclusive
CCC(CO)(C(=O)OC1CN2CCC1CC2)c1ccccc1 (stereo not given)	inconclusive: 130 nM
CCN1CCC(Nc2cccc(F)c2)CC1	inconclusive
COc1cc(OC)cc(C(=O)NCC2(N3CCCCC3)CCCCC2)c1	inconclusive
c1ccc(CN2CCC(Nc3ccccc3)CC2)cc1	inconclusive
O=C(O)c1cccc(Nc2c([N+](=O)[O-])cc([N+](=O)[O-])cc2[N+](=O)[O-])c1	inconclusive: 10300 nM
